# Assay results as given in patent US20110177950A1, “Imidazole and Triazole Compounds, Their Use and Agents Containing the Same” (priority 2008, published 2011).
# Some results were stated once for a whole list of compounds, not compound by compound.
# Test system: Septoria tritici
# Test: Activity against Septoria leaf spot pathogen in the microtiter test (Example M3)
# Assay type: cell-based
# Details: 8 ppm, day 7 after inoculation, 405 nm
smiles,measurement,value
"CC(C)(C)C(O)C(CC/C=C/c1ccc(F)cc1)n1cncn1 (stereo not shown) [I.A1a, (E)-8-(4-fluorophenyl)-2,2-dimethyl-4-[1,2,4]triazol-1-yloct-7-en-3-ol]",relative growth in % of the pathogen,at most 6%
